# Experimental data from article PMC8547044.
# Chains of the proteins cited; added tags and fusions are not shown. Lines headed by an entry give the natural chain unless they say otherwise; changes in a name come on top.
# UniProt P07355: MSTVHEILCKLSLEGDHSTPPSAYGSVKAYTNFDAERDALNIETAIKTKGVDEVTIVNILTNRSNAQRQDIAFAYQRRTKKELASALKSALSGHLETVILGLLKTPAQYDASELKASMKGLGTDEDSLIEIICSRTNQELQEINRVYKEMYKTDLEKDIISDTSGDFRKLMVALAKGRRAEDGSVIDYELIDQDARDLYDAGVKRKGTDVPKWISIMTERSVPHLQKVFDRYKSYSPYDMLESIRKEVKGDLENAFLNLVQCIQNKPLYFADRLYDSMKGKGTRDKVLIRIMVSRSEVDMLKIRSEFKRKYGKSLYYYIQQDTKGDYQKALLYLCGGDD
# UniProt P29279: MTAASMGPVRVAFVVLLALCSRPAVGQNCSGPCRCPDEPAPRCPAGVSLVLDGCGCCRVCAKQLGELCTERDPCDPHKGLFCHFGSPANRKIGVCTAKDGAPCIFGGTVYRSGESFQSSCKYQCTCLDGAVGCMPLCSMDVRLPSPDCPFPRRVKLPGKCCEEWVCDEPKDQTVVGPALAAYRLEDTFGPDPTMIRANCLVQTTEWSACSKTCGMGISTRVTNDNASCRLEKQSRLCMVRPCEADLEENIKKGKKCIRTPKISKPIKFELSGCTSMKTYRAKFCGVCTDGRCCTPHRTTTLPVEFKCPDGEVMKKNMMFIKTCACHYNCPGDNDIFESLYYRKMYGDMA
# Biological target: VN (I152L)-ANXA2 (ANXA2-full length in pBiFC-VN155 (I152L)) (human) (UniProt P07355)
# Assay: split reporter; BiFC: pBiFC-VC155 and pBiFC-VN155 (I152L) constructs co-transfected into HEK293T cells, fluorescence microscopy after 48 h
substance,measurement,value
VC155-CTGF-∆TSP1 (CTGF-∆TSP1 in pBiFC-VC155) (from UniProt P29279),binding,no binding

# Results are given in words; binding and its absence hold for the method and conditions named. In cells and extracts the contact can be indirect.
